Data from PubChem BioAssay AID488837 (National Center for Advancing Translational Sciences (NCATS), 2010).
About 20 (0.006%) of roughly 330,000 compounds were called active. This list was built around the results that the source calls inconclusive (neither active nor inactive); the mix of calls is not that of the screen. Calls come from the whole dose curve; as a rule, active = well fitted inhibition curve with a large enough effect; inconclusive = small, poorly fitted or top-dose-only effect, or effect the other way; inactive = flat fitted curve, though single readings scatter. Potencies beside an inconclusive call are fits to weak or partial responses and may not hold up.
% is set by controls: 0 for no effect and ±100 for the full control effect; potency is the fitted concentration of half-maximal effect.

Sequences of proteins named here, by UniProt entry; tags and fusion partners are left off. A change or cut given only in a name is not applied to a line headed by its entry.
UniProt O00167: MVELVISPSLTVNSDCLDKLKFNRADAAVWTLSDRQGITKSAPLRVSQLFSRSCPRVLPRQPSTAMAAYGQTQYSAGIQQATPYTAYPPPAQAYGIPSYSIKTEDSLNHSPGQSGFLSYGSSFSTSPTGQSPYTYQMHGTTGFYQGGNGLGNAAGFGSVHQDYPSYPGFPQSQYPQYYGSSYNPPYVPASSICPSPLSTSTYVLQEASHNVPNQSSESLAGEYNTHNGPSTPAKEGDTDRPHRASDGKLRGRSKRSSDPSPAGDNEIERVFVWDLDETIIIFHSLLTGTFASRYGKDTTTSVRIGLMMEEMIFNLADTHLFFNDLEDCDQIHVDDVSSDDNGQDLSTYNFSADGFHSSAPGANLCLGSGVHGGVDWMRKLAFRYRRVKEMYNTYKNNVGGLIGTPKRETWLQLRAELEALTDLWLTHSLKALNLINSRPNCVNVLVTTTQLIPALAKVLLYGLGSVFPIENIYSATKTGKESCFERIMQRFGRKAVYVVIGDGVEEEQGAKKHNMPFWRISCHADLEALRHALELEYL

What follows are compounds tested against Protein phosphatase EYA2 (Homo sapiens) (UniProt O00167) (assay: qHTS Assay for Inhibitors of the Phosphatase Activity of Eya2). Settings: recombinant Eya2, OMFP fluorescence dephosphorylation (OMFP is methylfluorescein phosphate); activity, negative = inhibition: at 76.9 µM (top of the series) unless noted.
Excerpt: The Eya family of proteins are essential co-activators of the Six1 transcription factor. Six1 is a developmental gene that is abnormally re-expressed in a large percentage of breast cancers. This over-expression plays a causal role in the initiation and metastatic development of breast cancers. The Eya family of proteins was also found to contain a unique HAD phosphatase domain with protein tyrosine phosphatase activity which can potentially play a role in Six1-mediated breast tumorigenesis. […] We have developed and optimized a 1536 well fluorescence-based HTS assay targeting the phosphatase activity of Eya2. Inhibitors found against Eya2 could serve as potential therapeutic tools to inhibit Six1-mediated breast tumorigenesis and to increase the efficiency of radiation and certain chemo therapy. These inhibitors could also be used as chemical probes to study the function of Eya2's phosphatase activity and its role in Six1-mediated breast tumorigenesis.
The Eya2 enzyme was kindly provided by the laboratory of Dr. Rui Zhao. The 3-O-methyl-fluorescein phosphate (OMFP) substrate and all buffer reagents were purchased from Sigma Aldrich. qHTS Assay Setup: 1. Buffer- 50 mM HEPES pH 7.5, 50 mM NaCl, 5 uM MgCl2, 0.05% BSA, 1 mM DTT. 2. OMFP Stock- 10 mM solution prepared in 100% DMSO and stored in single use aliquots at -20C. Assay Procedure- 1. Dispense 1.5 ul per well of Eya2 at 0.2 uM in black medium binding 1536 well Greiner plate 2. Transfer 23 nl of compound and control compound (EGTA) to plate 3. Incubate at ambient for 10 minutes 4. Dispense 1.5 ul per well of OMFP at 50 uM 5. Incubate at ambient for 10 minutes 6. Read on ViewLux using Excitation = 485 nm, Emission = 525 nm
With COc1ccc(C2NCCc3c2[nH]c2ccccc32)cc1CSc1nc2ccccc2s1 (centres undefined) the “activity, negative = inhibition” value was inactive: -6.51%.
O=C(CCn1cncn1)N1CCCC(N2CCN(c3cccc(C(F)(F)F)c3)CC2)C1 (centres undefined) was tested, and the “activity, negative = inhibition” value was inactive: 2.21%.
In the case of CCN1CCN(Cc2ccc(NC(=O)c3ccc(C)c(/C=C/c4cnc(Nc5cc(N6CCNCC6)nc(C)n5)cn4)c3)cc2C(F)(F)F)CC1, the “activity, negative = inhibition” value is reported as inactive: 5.6%.
COc1ccc(C(=O)C2CCCN(Cc3cn[nH]c3-c3ccc(F)cc3)C2)cc1OC (centres undefined) was tested, and the “activity, negative = inhibition” value was inactive: 4.85%.
In the case of CC1CCCCC1NC(=O)CN(C)S(=O)(=O)c1cccc2cccnc12 (centres undefined), the activity, negative = inhibition is reported as inconclusive: -34.7% [inhibitor].
For O=S1(=O)CCC(NC(=S)Nc2ccc3ccccc3c2)C1 (centres undefined), the Potency was inconclusive: 112 µM [inhibitor, single point].
For COc1cccc(C(=O)Nc2ccc(N3CCN(C(=O)c4cccs4)CC3)cc2)c1, the Potency was inconclusive: 14.1 µM [inhibitor, single point].
For CC(C)(C)c1nnc(N/N=C/c2ccccc2)n(N)c1=O, the “activity, negative = inhibition” value was inactive: -12.2%.
O=C(C1=C[C@@H](c2coc3ccccc3c2=O)C[C@@H](OCc2ccc(CO)cc2)O1)N1CCCCCCC1 was tested, and the Potency was inconclusive: 25.1 µM [inhibitor, single point].
With CCOC(=O)c1c(-c2ccc(C)cc2)csc1/N=C(\C)C1=C(O)c2ccccc2C1=O the Potency was inconclusive: 22.4 µM [inhibitor, single point].
With CC(O)(CS(=O)(=O)Cc1ccccc1)C(=O)Nc1cccc(C(F)(F)F)c1 (centres undefined) the Potency was inconclusive: 112 µM [inhibitor, partial curve, poor fit].
For COC1=CC(=O)c2ccccc2C1=O, the “activity, negative = inhibition” value was inactive: 9.76%.
O=C(NCc1ccccn1)c1ccc2c(=O)n(CCc3ccccc3)c(=O)[nH]c2c1 was tested, and the Potency was inconclusive: 25.1 µM [inhibitor, single point].
In the case of O=C(COC(=O)/C=C/C(=O)N1CCN(c2ccccc2)CC1)NC(c1ccccc1)c1ccccc1, the Potency is reported as inconclusive: 35.5 µM [inhibitor, partial curve, poor fit].
In the case of COc1ccc(OC)c2[nH]c(=O)c(CCNC(=O)C3CCCCC3)cc12, the Potency is reported as inconclusive: 398 µM [inhibitor, single point].
For CCOc1ccccc1OCC(=O)Nc1cc(C)on1, the Potency was inconclusive: 178 µM [inhibitor, partial curve, poor fit].
In the case of CCOc1ccc(-c2nnc3ccc(SCC(=O)Nc4nc5ccc(C)cc5s4)nn23)cc1, the “activity, negative = inhibition” value is reported as inactive: -0.691%.
For CNC(=O)COC(=O)c1ccccc1NC(=O)c1ccco1, the Potency was inconclusive: 25.1 µM [inhibitor, single point].
With Cn1nc(C(F)(F)F)c(/C=N/OCc2c(Cl)cccc2Cl)c1Cl the Potency was inconclusive: 20 µM [inhibitor, single point].
With COc1nccnc1NS(=O)(=O)c1ccc(N)cc1 the Potency was inconclusive: 22.4 µM [inhibitor, single point].
For COc1ccc2oc(=O)c(C(=O)NC3CCCCCC3)cc2c1, the Potency was inconclusive: 89.1 µM [inhibitor, single point].
In the case of Cc1nc2ccccc2n1CCOc1ccc(F)cc1, the Potency is reported as inconclusive: 89.1 µM [inhibitor, single point].
With CCNC(=O)CN1C(=O)NC2(CCCc3cc(OC)ccc32)C1=O (centres undefined) the “activity, negative = inhibition” value was inactive: -8.23%.
In the case of CSc1nc2ccc(NC(=O)NC(=O)c3c(F)cccc3F)cc2s1, the “activity, negative = inhibition” value is reported as inactive: -2.26%.
In the case of c1cc(-c2noc(CCC3CCCC3)n2)ccn1, the Potency is reported as inconclusive: 100 µM [inhibitor, single point].
With CC(=O)c1c(C)[nH]c(C(=O)Nc2cccc(S(=O)(=O)N3CCCCC3)c2)c1C the Potency was inconclusive: 63.1 µM [inhibitor, partial curve].
In the case of COc1cccc(NC(=O)c2ccc3c(c2)OCO3)c1, the Potency is reported as inconclusive: 89.1 µM [inhibitor, partial curve, poor fit].
In the case of O=C(NC1CC1)c1c(O)c2ccccc2[nH]c1=O, the Potency is reported as inconclusive: 447 µM [inhibitor, partial curve, poor fit].
With O=C(O)/C=C/C(=O)Nc1ccc2c(c1)NC(=O)CO2 the Potency was inconclusive: 100 µM [inhibitor, single point].
For C=CCN=c1scc(C)n1/N=C/c1ccc(O)c(O)c1, the “activity, negative = inhibition” value was inactive: 2.3%.
For C(#CCN1CCOCC1)COCCOC(c1ccccc1)c1ccccc1, the Potency was inconclusive: 17.8 µM [inhibitor, single point].
COc1ccc(S(=O)(=O)NCc2csc(-c3cccnc3)n2)cc1 was tested, and the Potency was inconclusive: 14.1 µM [inhibitor, single point].
In the case of CCCNC(=S)N1CCC(NC(=O)Nc2ccc(C)cc2)CC1, the Potency is reported as inconclusive: 126 µM [inhibitor, single point].
In the case of COc1cccc(-c2noc(Cn3nc(C(=O)O)c4ccccc4c3=O)n2)c1, the Potency is reported as inconclusive: 79.4 µM [inhibitor, single point].
With Cc1ccc(NC(=O)CSc2ccccc2)cc1S(=O)(=O)N1CCCCC1 the “activity, negative = inhibition” value was inactive: 8.09%.
With O=C(Nc1ccccc1C(=O)Nc1ccccc1)c1ccco1 the Potency was inconclusive: 15.8 µM [inhibitor, partial curve].
In the case of CC(Sc1nc2scc(-c3ccccc3)c2c(=O)[nH]1)C(=O)NC(N)=O (centres undefined), the Potency is reported as inconclusive: 22.4 µM [inhibitor, single point].
COc1cc(C(=O)OCC(=O)NCCCc2ccccc2)ccc1OCC(C)C was tested, and the Potency was inconclusive: 25.1 µM [inhibitor, single point].
In the case of CCC(=O)Nc1nc(-c2ccc3c(c2)CC(C)N3S(C)(=O)=O)cs1 (centres undefined), the “activity, negative = inhibition” value is reported as inactive: 4.14%.
For COc1ccc(N(C(=O)c2cnccn2)C(C(=O)NC2CCCCC2)c2ccc(O)cc2)cc1 (centres undefined), the Potency was inconclusive: 200 µM [inhibitor, single point].
For CCS(=O)(=O)c1ccc(C(=O)Nc2ccccc2OC)c(Cl)c1Cl, the Potency was inconclusive: 501 µM [inhibitor, partial curve, poor fit].
COCCCNc1c2c3c(cccc3[nH]c1=O)C(=O)c1ccccc1-2 was tested, and the Potency was inconclusive: 39.8 µM [activator, partial curve].
O=S(=O)(c1ccc(F)c(F)c1F)N1CCN(C(=S)NC2CC3CCC2C3)CC1 (centres undefined) was tested, and the “activity, negative = inhibition” value was inactive: 0.806%.
For CCN(CC)c1ccc2nc3ccccc3[n+](CC)c2c1, the Potency was inconclusive: 89.1 µM [inhibitor, single point].
